Percent effect of library compounds

Amino acid sequences for entries named in this document (tags omitted). Residues count along the entry.
UniProt I6X8D2, whole entry: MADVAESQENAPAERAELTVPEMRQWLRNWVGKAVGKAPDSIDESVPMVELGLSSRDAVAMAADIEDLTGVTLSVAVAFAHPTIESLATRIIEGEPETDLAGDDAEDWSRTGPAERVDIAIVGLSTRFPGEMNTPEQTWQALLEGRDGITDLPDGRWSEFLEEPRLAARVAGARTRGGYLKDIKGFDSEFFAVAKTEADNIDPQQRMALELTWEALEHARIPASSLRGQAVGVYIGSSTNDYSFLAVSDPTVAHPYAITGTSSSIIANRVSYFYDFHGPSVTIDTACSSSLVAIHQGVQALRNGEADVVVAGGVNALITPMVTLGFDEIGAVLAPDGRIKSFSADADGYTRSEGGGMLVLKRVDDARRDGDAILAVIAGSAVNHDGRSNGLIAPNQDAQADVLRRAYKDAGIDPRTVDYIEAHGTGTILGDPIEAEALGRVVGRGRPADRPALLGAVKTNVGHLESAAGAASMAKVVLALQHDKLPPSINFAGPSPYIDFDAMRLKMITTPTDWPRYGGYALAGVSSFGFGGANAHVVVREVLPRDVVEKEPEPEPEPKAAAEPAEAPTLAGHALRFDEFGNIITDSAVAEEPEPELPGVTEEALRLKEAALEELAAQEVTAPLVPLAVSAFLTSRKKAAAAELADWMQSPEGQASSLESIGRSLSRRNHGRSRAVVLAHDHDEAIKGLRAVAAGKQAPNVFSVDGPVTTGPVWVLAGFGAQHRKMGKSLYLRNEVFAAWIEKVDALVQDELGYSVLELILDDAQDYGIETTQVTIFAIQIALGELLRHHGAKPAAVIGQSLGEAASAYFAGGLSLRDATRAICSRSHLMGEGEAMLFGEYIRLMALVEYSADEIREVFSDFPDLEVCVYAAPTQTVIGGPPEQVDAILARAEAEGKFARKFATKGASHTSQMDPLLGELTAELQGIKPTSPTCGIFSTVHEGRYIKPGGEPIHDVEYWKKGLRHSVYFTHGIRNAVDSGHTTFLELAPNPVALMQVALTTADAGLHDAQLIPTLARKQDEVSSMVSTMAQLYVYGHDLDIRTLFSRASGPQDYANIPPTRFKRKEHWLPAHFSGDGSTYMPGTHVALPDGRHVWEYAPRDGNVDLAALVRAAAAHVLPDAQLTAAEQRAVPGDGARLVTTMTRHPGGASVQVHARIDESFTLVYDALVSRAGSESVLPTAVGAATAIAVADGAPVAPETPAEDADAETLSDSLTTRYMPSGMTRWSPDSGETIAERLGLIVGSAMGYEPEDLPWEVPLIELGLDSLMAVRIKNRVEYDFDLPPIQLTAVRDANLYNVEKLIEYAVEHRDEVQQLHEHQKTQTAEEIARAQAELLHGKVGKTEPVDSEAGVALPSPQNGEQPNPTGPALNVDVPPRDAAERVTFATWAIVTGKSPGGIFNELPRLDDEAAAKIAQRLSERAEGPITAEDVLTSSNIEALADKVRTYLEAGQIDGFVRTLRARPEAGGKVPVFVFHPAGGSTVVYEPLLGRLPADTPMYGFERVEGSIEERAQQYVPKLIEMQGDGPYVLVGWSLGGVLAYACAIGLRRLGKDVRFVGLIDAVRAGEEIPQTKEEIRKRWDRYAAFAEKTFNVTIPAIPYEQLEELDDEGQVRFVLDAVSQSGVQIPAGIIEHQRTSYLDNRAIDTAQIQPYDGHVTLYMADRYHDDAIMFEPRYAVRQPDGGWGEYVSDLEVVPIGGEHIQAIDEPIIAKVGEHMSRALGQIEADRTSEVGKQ
UniProt Q8IDJ8, 1-583: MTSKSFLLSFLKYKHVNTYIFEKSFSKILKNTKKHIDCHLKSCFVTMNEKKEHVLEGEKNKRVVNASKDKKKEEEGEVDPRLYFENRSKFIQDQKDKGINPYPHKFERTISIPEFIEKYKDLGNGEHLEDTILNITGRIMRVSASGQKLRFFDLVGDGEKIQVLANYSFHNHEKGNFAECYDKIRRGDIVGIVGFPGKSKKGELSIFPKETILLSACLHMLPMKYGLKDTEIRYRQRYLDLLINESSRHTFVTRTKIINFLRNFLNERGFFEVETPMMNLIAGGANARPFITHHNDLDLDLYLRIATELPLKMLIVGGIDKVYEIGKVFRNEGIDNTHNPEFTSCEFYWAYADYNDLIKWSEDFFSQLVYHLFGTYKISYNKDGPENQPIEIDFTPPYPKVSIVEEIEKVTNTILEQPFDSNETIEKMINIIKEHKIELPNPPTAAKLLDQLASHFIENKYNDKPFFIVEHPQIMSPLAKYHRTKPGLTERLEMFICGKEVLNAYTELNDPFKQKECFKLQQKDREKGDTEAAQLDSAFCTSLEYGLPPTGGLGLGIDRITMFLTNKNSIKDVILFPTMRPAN
UniProt P9WNZ1, whole entry: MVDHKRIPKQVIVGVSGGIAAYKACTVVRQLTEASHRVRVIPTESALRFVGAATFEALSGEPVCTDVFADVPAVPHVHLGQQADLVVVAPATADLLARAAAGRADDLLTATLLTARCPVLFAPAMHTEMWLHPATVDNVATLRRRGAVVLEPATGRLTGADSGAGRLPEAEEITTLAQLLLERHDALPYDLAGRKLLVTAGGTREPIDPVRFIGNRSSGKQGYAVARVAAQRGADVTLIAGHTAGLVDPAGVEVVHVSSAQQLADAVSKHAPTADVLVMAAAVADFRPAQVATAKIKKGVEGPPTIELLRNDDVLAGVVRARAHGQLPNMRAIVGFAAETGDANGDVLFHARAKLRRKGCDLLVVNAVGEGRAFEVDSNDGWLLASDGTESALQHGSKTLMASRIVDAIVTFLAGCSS

Source: ChEMBL document CHEMBL3988442, “University of Dundee, Small-Polar-MMV Screening Library” (2021).

Values are the deposited “Percent Effect”, in %.
The record does not define 0% and 100%; most values in the screen are far below 50% and negative numbers occur (in some assays of this library far below -100).
Compounds were drawn at random from those tested, without regard to their results.

A: 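Assay of Toxoplasma gondii numbers, read through their beta-galactosidase reporter with a colour substrate. Compounds at 10 µM. Higher reads as fewer parasites (inferred from which compounds were picked for retests). About 67,000 compounds were tested under these conditions; 0.38% (about 260) showed 50% or more at least once.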
B: 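Polyketide synthase Pks13, Mycobacterium tuberculosis (UniProt I6X8D2). Enzyme assay of the thioesterase domain of polyketide synthase 13; the read-out is not stated. Concentration: 30 µM. Higher reads as stronger inhibition (inferred from which compounds were picked for retests). Of about 67,000 compounds tested this way, about 300 (0.46%) reached 50% or more in at least one test.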
C: 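Lysine-tRNA ligase, Plasmodium falciparum 3D7 (UniProt Q8IDJ8). Enzyme assay of the cytosolic lysyl-tRNA synthetase in 384-well plates, read by luminescence. Tested at 30 µM. Direction is inferred from only a few compounds that gave an IC50; most scored high, so higher reads as stronger inhibition. About 69,000 compounds were tested under these conditions; 0.071% (about 49) showed 50% or more at least once.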
D: 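Enzyme assay of CoaBC with a phosphate dye (Biomol Green) read at 650 nm. Target: Coenzyme A biosynthesis protein CoaBC, Mycobacterium tuberculosis (UniProt P9WNZ1). Concentration: 30 µM. Direction is inferred from only a few compounds that gave an IC50; most scored high, so higher reads as stronger inhibition. Most strong results did not repeat in a second test. About 67,000 compounds were tested under these conditions; 0.06% (about 40) showed 50% or more at least once.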

{"structure": "O=C(CN1CCN(c2ccccc2F)CC1)Nc1ccc(Cl)cn1", "A": -8.225, "B": -8.412, "C": 0.509, "D": 0}
{"structure": "Cc1ccc2c(c1)c(CNC(=O)C1CCN(C(C)C)CC1)nn2C", "A": -5.655, "B": -25.33, "C": 5.019, "D": -5.757}
{"structure": "Cn1ccc(C(=O)NCc2cccc(Cn3ccnc3)c2)cc1=O", "A": -2.586, "B": -51.95, "C": 0.8586, "D": 5.832}
{"structure": "CC(C)NC(=O)N1CCc2onc(C(=O)NCCN(C)C)c2C1", "B": -34.86, "C": -5.525, "D": 3.171}
{"structure": "CN1CCCC(c2cccc(CCC(N)=O)n2)C1", "stereo": "centres unmarked", "A": -10.94, "B": -7.143, "C": 3.707, "D": 4.167}
{"structure": "COc1cccc(CC2CCCN2CCCO)c1", "stereo": "centres unmarked", "A": -3.346, "B": -13.72, "C": -1.397, "D": 8.4}
{"structure": "CC(=O)N1CCc2nnc(C3CCCCN3CC3CCCCC3)n2CC1", "stereo": "centres unmarked", "A": 11.39, "B": 1.989, "C": -1.2, "D": 1.36}
{"structure": "Cc1nc(-c2ccccc2)sc1CSCCC(N)=O", "A": -2.612, "B": 5.481, "C": -2.56, "D": 6.048}
{"structure": "Cc1ccc2c(CC(=O)N3C[C@@H](O)[C@H](N(C)C)C3)coc2c1", "A": -14.08, "B": 6.745, "C": 1.345, "D": 0.1227}
{"structure": "Cc1ccc(CN2C[C@H]3CN(Cc4ccccc4Cl)CCN3C2=O)cc1", "B": -22.17, "C": 10.24, "D": 1.129}
{"structure": "Cc1cc(CN2CCC(C(=O)O)(n3ccc(-c4ccco4)n3)CC2)on1", "A": -13.18, "B": 7.79, "C": 1.824, "D": 2.746}
{"structure": "CS(=O)(=O)N[C@H]1COC[C@@H]2CN(Cc3ccco3)C[C@@H]21", "B": -7.222, "C": -0.9435, "D": 1.11}
{"structure": "Cc1ccc(Cn2nc(C)c3c(C(=O)O)c(Cl)c(C4CC4)nc32)cc1", "A": 12.43, "B": -10.85, "C": 5.026, "D": 6.308}
{"structure": "Cc1n[nH]c(C)c1CCN(C)c1ccc(-c2nc(C3CC3)no2)cn1", "A": -7.624, "B": 62.78, "C": -0.5017, "D": -1.843}
{"structure": "Cc1ccc(OCC(C)NC(=O)CN(C)c2ccc(C#N)cn2)cc1", "stereo": "centres unmarked", "A": -0.5853, "B": -5.761, "C": 5.588, "D": -5.216}
{"structure": "CCN(CC1CN(Cc2ncc[nH]2)CCO1)c1cccnn1", "stereo": "centres unmarked", "A": -1.211, "B": -4.758, "C": 2.848, "D": 0.4464}

Once more, the final 2:

* Cc1ccc(OCC(C)NC(=O)CN(C)c2ccc(C#N)cn2)cc1 (centres unmarked) : A: -0.5853%; B: -5.761%; C: 5.588%; D: -5.216%
* CCN(CC1CN(Cc2ncc[nH]2)CCO1)c1cccnn1 (centres unmarked) : A: -1.211%; B: -4.758%; C: 2.848%; D: 0.4464%